Laboratory results taken from publication PMC12816148.
No constants are given. Whether binding was seen depends on the method and setting. In cells and extracts the contact can be indirect. A yes stands for co-enrichment or nearness to the bait. Other partners may have been found.

Sequences of proteins named here, by UniProt entry; tags and fusion partners are left off. A change or cut given only in a name is not applied to a line headed by its entry.
UniProt Q382K3: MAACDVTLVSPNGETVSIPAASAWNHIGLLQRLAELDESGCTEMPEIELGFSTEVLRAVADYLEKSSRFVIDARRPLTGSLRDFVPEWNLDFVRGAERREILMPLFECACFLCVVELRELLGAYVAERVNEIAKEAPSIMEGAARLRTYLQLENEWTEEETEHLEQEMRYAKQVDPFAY
UniProt Q57VL7: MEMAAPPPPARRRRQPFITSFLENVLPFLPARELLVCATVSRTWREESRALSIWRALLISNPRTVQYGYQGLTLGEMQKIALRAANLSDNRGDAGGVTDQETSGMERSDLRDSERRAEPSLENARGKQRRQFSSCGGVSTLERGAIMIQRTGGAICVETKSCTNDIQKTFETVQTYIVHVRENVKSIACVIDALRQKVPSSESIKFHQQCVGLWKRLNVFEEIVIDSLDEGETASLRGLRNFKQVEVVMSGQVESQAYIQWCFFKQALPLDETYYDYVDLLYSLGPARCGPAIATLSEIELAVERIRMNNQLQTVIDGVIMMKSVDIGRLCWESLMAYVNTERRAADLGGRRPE
UniProt Q389D6: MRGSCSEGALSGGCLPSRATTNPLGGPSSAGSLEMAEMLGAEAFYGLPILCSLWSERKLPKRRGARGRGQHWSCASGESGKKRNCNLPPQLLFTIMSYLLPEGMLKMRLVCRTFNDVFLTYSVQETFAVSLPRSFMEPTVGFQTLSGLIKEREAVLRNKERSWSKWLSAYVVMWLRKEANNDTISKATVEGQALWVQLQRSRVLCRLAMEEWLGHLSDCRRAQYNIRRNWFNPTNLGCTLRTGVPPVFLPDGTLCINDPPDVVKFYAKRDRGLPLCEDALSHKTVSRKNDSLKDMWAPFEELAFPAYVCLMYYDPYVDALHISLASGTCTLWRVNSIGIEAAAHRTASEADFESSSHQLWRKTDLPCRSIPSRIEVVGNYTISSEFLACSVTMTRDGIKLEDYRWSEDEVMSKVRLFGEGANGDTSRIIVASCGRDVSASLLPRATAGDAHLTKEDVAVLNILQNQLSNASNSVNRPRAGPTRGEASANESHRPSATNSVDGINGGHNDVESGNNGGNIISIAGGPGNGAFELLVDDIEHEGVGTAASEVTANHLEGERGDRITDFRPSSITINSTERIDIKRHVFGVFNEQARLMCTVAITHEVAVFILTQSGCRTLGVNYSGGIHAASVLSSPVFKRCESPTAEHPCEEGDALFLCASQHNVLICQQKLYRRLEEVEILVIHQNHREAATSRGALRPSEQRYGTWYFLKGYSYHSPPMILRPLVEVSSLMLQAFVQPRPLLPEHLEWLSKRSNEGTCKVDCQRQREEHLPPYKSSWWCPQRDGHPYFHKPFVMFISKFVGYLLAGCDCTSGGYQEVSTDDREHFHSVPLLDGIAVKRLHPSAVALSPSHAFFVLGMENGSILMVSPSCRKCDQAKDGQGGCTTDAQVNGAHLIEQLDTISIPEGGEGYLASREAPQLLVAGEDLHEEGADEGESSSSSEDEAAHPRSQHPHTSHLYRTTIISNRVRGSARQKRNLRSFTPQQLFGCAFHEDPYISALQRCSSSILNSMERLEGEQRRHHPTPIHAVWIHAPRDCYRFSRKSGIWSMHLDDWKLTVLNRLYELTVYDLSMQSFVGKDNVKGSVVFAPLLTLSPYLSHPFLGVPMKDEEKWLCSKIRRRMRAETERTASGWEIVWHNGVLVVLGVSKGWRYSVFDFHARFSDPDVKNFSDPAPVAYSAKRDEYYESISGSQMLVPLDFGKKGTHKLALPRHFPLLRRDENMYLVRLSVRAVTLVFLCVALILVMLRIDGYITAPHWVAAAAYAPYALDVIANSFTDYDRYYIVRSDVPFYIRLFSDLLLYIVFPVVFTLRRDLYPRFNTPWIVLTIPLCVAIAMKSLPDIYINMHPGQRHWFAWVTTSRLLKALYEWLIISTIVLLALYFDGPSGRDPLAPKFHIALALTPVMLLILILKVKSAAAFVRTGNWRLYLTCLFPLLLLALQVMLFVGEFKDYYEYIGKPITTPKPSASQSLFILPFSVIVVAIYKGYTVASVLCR
UniProt Q38C61: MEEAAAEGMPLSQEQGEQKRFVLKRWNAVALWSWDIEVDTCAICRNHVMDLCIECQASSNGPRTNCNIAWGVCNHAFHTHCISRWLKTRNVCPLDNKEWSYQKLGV
UniProt Q385F6: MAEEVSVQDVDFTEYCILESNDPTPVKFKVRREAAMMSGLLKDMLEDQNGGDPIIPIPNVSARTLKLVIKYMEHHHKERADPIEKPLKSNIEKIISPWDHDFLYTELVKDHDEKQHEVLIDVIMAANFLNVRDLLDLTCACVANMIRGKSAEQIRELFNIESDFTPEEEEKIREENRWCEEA
UniProt Q586I3: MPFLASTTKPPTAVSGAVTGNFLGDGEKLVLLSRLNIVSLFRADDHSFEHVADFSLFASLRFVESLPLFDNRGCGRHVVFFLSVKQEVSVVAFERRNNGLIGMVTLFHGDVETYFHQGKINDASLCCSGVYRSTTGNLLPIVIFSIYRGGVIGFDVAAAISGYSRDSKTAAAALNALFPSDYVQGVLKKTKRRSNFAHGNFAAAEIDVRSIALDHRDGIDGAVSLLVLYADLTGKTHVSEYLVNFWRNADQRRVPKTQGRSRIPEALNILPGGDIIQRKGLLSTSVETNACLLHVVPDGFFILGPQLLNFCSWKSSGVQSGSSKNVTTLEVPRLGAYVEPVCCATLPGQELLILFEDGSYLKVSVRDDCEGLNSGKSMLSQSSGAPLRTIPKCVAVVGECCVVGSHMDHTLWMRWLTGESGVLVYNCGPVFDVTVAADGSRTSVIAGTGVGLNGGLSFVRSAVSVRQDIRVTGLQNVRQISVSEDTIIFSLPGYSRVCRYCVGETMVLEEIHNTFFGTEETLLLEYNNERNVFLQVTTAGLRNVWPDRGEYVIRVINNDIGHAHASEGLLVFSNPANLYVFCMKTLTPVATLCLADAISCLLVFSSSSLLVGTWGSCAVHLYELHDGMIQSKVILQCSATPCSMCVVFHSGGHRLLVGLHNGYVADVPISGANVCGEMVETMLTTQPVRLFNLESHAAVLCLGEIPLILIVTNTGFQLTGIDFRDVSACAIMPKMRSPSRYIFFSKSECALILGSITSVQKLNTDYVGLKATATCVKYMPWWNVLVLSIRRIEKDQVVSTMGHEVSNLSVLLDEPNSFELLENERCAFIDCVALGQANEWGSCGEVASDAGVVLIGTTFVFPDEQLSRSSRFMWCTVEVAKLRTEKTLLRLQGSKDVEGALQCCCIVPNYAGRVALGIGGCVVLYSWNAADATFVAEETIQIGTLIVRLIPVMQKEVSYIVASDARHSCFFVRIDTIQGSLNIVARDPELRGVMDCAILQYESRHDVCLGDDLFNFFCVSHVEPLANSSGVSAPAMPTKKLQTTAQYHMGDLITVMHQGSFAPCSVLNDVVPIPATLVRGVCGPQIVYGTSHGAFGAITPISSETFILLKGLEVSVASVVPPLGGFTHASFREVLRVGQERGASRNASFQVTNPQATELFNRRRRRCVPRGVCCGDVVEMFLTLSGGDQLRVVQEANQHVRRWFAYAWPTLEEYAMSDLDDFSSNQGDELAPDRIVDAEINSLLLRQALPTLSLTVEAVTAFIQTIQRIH
UniProt Q385Y9: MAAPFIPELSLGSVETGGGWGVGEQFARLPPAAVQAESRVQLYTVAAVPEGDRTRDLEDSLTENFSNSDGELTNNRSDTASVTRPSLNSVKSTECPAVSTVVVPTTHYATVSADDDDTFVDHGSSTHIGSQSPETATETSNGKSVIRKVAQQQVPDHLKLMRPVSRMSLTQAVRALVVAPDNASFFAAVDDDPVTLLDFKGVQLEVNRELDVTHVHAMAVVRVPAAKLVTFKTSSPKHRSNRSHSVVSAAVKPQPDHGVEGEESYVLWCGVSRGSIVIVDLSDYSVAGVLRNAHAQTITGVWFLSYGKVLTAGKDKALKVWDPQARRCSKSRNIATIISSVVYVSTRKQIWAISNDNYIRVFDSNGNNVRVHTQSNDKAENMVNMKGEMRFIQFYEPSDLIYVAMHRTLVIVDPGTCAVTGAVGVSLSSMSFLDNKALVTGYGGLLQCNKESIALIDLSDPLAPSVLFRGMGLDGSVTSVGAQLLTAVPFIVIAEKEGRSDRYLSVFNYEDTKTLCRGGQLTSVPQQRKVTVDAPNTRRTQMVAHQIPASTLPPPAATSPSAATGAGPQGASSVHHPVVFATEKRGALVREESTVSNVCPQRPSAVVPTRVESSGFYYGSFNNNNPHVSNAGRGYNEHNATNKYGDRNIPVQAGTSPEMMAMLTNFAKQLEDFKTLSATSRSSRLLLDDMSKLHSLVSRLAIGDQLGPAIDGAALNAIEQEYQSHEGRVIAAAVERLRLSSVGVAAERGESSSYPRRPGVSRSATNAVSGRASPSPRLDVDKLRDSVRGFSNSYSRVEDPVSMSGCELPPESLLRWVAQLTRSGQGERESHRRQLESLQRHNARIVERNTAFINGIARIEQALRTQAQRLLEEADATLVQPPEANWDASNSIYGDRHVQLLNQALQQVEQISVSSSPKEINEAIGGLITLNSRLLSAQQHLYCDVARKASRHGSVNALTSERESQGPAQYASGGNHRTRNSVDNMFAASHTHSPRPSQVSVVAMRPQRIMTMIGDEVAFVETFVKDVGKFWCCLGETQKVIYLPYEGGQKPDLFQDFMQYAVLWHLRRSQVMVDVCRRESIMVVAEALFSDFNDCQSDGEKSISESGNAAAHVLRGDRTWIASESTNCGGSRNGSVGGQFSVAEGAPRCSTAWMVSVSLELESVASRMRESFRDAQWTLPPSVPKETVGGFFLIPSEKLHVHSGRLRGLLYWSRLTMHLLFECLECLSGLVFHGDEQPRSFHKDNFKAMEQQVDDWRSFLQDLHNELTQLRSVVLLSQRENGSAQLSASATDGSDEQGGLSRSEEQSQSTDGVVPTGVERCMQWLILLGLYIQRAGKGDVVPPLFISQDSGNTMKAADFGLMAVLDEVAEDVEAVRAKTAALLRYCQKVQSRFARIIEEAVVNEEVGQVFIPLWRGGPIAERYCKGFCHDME
UniProt Q57YL5: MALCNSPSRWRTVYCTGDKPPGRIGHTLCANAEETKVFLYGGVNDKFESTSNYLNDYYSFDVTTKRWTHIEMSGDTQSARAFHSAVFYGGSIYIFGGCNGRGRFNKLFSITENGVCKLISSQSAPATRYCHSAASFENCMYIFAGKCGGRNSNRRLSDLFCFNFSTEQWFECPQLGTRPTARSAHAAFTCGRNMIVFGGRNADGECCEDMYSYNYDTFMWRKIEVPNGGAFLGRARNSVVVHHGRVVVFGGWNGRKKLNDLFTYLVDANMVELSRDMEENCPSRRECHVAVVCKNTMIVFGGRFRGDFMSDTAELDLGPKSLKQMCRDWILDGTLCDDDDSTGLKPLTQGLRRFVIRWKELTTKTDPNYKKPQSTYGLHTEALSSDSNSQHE
UniProt Q383D3: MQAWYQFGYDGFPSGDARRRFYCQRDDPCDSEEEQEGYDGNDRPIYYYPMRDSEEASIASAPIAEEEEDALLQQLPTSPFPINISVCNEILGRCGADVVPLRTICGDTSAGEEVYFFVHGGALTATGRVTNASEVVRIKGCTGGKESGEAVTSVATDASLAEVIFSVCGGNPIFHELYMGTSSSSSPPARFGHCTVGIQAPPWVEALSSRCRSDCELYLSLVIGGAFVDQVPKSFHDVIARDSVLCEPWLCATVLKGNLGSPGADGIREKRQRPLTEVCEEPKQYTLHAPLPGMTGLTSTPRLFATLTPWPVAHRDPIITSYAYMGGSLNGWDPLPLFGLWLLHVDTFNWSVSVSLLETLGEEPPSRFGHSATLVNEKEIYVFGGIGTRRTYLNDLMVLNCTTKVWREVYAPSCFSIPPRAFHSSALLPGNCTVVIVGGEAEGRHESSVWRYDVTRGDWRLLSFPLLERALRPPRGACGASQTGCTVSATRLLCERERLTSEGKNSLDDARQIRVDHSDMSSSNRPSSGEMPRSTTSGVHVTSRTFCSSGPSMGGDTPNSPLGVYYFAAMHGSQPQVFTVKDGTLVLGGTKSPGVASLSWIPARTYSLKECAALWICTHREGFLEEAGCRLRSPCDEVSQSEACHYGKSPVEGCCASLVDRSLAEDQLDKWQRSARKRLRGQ
UniProt Q383X4: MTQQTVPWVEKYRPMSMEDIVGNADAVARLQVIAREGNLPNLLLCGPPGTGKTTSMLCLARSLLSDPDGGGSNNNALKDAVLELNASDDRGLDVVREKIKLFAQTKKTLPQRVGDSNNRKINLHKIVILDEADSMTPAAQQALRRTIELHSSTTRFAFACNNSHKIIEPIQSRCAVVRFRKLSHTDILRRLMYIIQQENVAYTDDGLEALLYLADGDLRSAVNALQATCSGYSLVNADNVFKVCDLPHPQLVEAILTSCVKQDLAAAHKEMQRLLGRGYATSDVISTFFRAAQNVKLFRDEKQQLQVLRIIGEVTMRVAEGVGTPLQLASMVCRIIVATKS
UniProt Q587A2: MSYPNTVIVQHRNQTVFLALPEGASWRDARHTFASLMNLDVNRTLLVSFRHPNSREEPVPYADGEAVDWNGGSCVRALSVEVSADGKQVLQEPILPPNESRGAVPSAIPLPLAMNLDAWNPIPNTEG

B1: ornithine decarboxylase (TbODC) (enzyme, UniProt P07805 1-423)
chain: MDIVVNDDLSCRFLEGFNTRDALCKKISMNTCDEGDPFFVADLGDIVRKHETWKKCLPRVTPFYAVKCNDDWRVLGTLAALGTGFDCASNTEIQRVRGIGVPPEKIIYANPCKQISHIRYARDSGVDVMTFDCVDELEKVAKTHPKAKMVLRISTDDSLARCRLSVKFGAKVEDCRFILEQAKKLNIDVTGVSFHVGSGSTDASTFAQAISDSRFVFDMGTELGFNMHILDIGGGFPGTRDAPLKFEEIAGVINNALEKHFPPDLKLTIVAEPGRYYVASAFTLAVNVIAKKVTPGVQTDVGAHAESNAQSFMYYVNDGVYGSFNCILYDHAVVRPLPQREPIPNEKLYPSSVWGPTCDGLDQIVERYYLPEMQVGEWLLFEDMGAYTVVGTSSFNGFQSPTIYYVVSGLPDHVVRELKSQKS
B2: kelch domain protein Tb927.1.820 (protein, UniProt Q4GZD6 1-426)
chain: MMSNTTSSGKGPTTFMWNSVPPSGDMPLHGCCHSLANYKDEQLILFGGGALHIIFNDVYCFDLKTSTWSYKETTNSEIVAPRISHSAVVHEDKMYVYGGQDLYMPTRFADVLVLDLITFTWSLIQQQATPAPDGPGDRRLHTAHIYRNCMYVLMGEPCNISNSFWFLDLTTLEWHPVHSSGWFGKPILPLLGHSAQVEGDYLYVFGGYHADSARRNGSPVYNNSLFSYHFPSNTWREVVPSSGPRPSPRYASAMAVIRGRVFIYGGDVDGEVYFDDFWCIDTNIPSSAASQSSSSSSYTTSLVAAPPAASSRWIDITLSCGRGRPSARSGHASAVAQGCLFVVGGELPGDRDVVYYSNRTYRYPLGYLTRLSLVELSSLWLAKCNPANIWMLDTQIPRHVRQLLVRNLNAQDRESTDDMMPCTRVV

Each molecule was assayed against TbCul-G (Trypanosoma brucei brucei (endogenous in procyclic Lister 427)) (UniProt Q583G1) (assay: affinity purification with mass spectrometry; 3xHA-tagged cullin captured on anti-HA magnetic beads from cryomilled procyclic T. brucei cell powder; 20 mM HEPES pH 7.4, 250 mM NaCl, 1 mM Mg2Cl, 0.01 mM CaCl2, 0.1% Brij58; 2 h at 4 °C; LC-MSMS, LFQ against untagged parental cells).

Row | Molecule | binding
1 | TbSkp-1.3 (from UniProt Q382K3) | binds
2 | flagellar member 2 (FLAM2) (from UniProt Q38AN4) | binds
3 | leucine-rich repeat protein (LRR) Tb927.4.3100 (from UniProt Q583Y7) | binds
4 | leucine-rich repeat protein (LRR) Tb927.6.1490 (from UniProt Q585R1) | binds
5 | leucine-rich repeat protein (LRR) Tb927.10.10190 (from UniProt Q389V8) | binds
6 | protein phosphatase 1 Tb927.4.3620 (from UniProt Q585I8) (enzyme) | binds
7 | protein phosphatase 1 Tb927.4.3640 (from UniProt Q585I6) (enzyme) | binds
8 | vacuolar protein sorting protein 13 (Vps13) (from UniProt Q57X24) | binds

These molecules were tested against TbCul-A (Trypanosoma brucei brucei (endogenous in procyclic Lister 427)) (UniProt Q57YJ8) in the same assay as above.

Row | binding | Molecule
9 | binds | F-box protein Tb927.4.3000 (from UniProt Q583X7)
10 | binds | F-box protein Tb927.5.700 (from UniProt Q57VF8)
11 | binds | F-box protein Tb927.7.4300 (from UniProt Q57UR0)
12 | binds | F-box protein Tb927.8.1380 (from UniProt Q57VL7)
13 | binds | F-box protein Tb927.10.410 (from UniProt Q38CJ7)
14 | binds | F-box protein Tb927.10.12060 (from UniProt Q389D6)
15 | binds | TbRbx1 (from UniProt Q38C61)
16 | binds | TbSkp-1 (from UniProt Q385F6)
17 | binds | B1

What follows are molecules tested against TbCul-D (Trypanosoma brucei brucei (endogenous in procyclic Lister 427)) (UniProt Q57XW2) in the same assay as above.

Row | binding | Molecule
18 | binds | DCAF protein Tb927.8.840 (from UniProt Q57YE7)
19 | binds | DCAF protein Tb927.11.3190 (from UniProt Q386J2)
20 | binds | DDB1 (from UniProt Q586I3)
21 | binds | Kap60 (from UniProt Q583S0)
22 | binds | NOP60 (from UniProt Q387E2)
23 | binds | TbRbx1 (from UniProt Q38C61)
24 | binds | nucleolar RNA-binding protein Tb927.8.750 (from UniProt Q57YF6)

Row | Molecule | binding
25 | Tb927.11.4280 (from UniProt Q385Y9) | binds

What follows are molecules tested against TbCul-E (Trypanosoma brucei brucei (endogenous in procyclic Lister 427)) (UniProt Q383D5) in the same assay as above.

Row | binding | Molecule
26 | binds | TbRbx1 (from UniProt Q38C61)
27 | binds | kelch domain protein Tb927.5.1980 (from UniProt Q57ZR7)
28 | binds | kelch domain protein Tb927.8.6140 (from UniProt Q57YL5)
29 | binds | kelch domain protein Tb927.11.11450 (from UniProt Q383D3)
30 | binds | replication factor C subunit Tb927.11.9550 (from UniProt Q383X4)
31 | binds | vacuolar protein sorting protein 13 (Vps13) (from UniProt Q57X24)
32 | binds | B2

Row | Molecule | binding
33 | Tb927.6.4360 (from UniProt Q587A2) | binds
